Results on 39 compounds are retold here after PubChem BioAssay AID493014 (National Center for Advancing Translational Sciences (NCATS), 2011).

Structures are written as SMILES. Some of the results follow. These are further read-outs of the screen, such as a control signal, another cell line or another target. No call is given for them. Compounds called inactive in the main read-out are mostly missing here. Words in brackets tell the shape of the fitted curve; partial curves, single points and poor fits give uncertain potencies.

The experiment can be described thus: qHTS Assay to Find Inhibitors of Chronic Active B-Cell Receptor Signaling. The following applies: ABC-DLBCL IkBa-CBG/CBR reporter, luminescence ratio (green luciferase fused to IkBa over red control in TMD8 lymphoma cells), 4 h. In a few lines: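 Cell line TMD8 (human ABC DLBCL), stably expressing tet-inducible CBG68-IkBa fusion and CBR; IMDM/0.5% FBS; cpd up to 46 uM; dox induction, 4 h, 37C/5% CO2; dual luminescence; green/red ratio; MG132 control.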
For orientation: In qHTS, concentration-response curves come from the screen itself.

The mark [1] stands for this setting: measured here: CBR red luminescence, cell number.
Setting [2] is: measured here: IkBa-CBG green luminescence.

On to `N#Cc1nc(Nc2cccc(Cl)c2)c2ncn(C3CCCC3)c2n1`, for which, under setting [1], the AC50 is 0.164 µM [rising, full curve, poor fit].

For `O=[N+]([O-])/C(=C\Nc1ccc(F)cc1F)S(=O)(=O)c1ccccc1`, the AC50 under setting [1] is 3.55 µM [falling, single point].

With `CC(NC(=O)c1c(O)c2ccccc2[nH]c1=O)c1ccccc1` (stereo unspecified), under setting [1], the AC50 is 0.447 µM [rising, full curve, poor fit].

For the compound `CC(C)(C)C(=O)Nc1ccc(-c2cn3cccnc3n2)cc1`, under setting [1], the AC50 was 3.55 µM [rising, partial curve].

Take `O=C(Nc1cccc(-c2csc(Nc3ccc(Cl)cc3)n2)c1)c1cc([N+](=O)[O-])cc(C(F)(F)F)c1`: the AC50 under setting [1] is 7.08 µM [rising, partial curve, poor fit].

With `COC(=O)c1cccc(NC(=O)/C(=C\c2ccccc2)NC(=O)c2ccccc2Cl)c1`, the concentration at half-maximal activity (AC50) under setting [1] is 20 µM [falling, partial curve, poor fit].

In the case of `Oc1cccc2c(NC(=S)Nc3ccc(OC(F)F)cc3)cccc12`, under setting [1], the AC50 was 0.164 µM [falling, full curve].

Regarding `COc1ccccc1CNC(=O)CN1C(=O)NC(C)(c2ccc(C(C)(C)C)cc2)C1=O` (stereo unspecified), the AC50 under setting [1] was 10 µM [falling, partial curve, poor fit].

Consider `CCC(CC)c1nnc(NC(=O)c2nn(C)c(=O)c3ccccc23)s1`, for which the AC50 under setting [1] was 11.2 µM [rising, partial curve, poor fit].

`Cc1cc(C(=O)OCC(=O)Nc2ccccc2C)c(C)o1`: the AC50 under setting [1] is 18.4 µM [falling, partial curve, poor fit].

`c1ccc(Nc2nc3ccccc3[nH]2)nc1`: under setting [1], the concentration at half-maximal activity (AC50) is 10 µM [falling, partial curve, poor fit].

On to `CCN1CCCC1CNC(=O)c1cc2c(OC)cccc2[nH]1` (stereo unspecified), for which the half-maximal activity concentration (AC50) under setting [1] is 2.82 µM [falling, full curve, poor fit].

As to `CCOC(=O)c1sc(NC(=O)COc2ccc3c(c2)OCO3)nc1C`, under setting [1], the half-maximal activity concentration (AC50) is 1 µM [falling, full curve, poor fit].

Turning to `Cc1cccc([C@@H]2[C@@H]3C(=O)N(Cc4ccccc4)C(=O)[C@@H]3[C@]3(Cc4ccccc4)C(=O)N(c4ccccc4)C(=O)N23)c1`, under setting [1], the concentration at half-maximal activity (AC50) was 2.59 µM [falling, full curve, poor fit].

Take `FC(F)(F)c1ccccc1-n1c(-c2cnccn2)n[nH]c1=S`: the AC50 under setting [1] is 10 µM [falling, partial curve].

As for `Cc1ccc(N2CC(C(=O)NCCS(=O)(=O)N3CCN(c4ccccc4)CC3)CC2=O)cc1` (stereo unspecified), the half-maximal activity concentration (AC50) under setting [1] is 35.5 µM [rising, single point].

`O=C(c1ccncc1)c1nccn1-c1ccccn1`: under setting [1], the AC50 was 15.8 µM [falling, single point].

On to `CCOC(=O)c1c(C)n(-c2ccccc2)c2ccc(O)cc12`, for which the AC50 under setting [1] is 20 µM [falling, single point].

For the compound `COc1cccc(N(CC(=O)NCCSc2ccccn2)S(C)(=O)=O)c1`, under setting [1], the concentration at half-maximal activity (AC50) is 0.206 µM [rising, full curve, poor fit].

Turning to `OC(CN1c2ccccc2Sc2ccccc21)Cn1nnc2ccccc21` (stereo unspecified), under setting [1], the concentration at half-maximal activity (AC50) is 29.1 µM [falling, single point].

Consider `COc1ccc(C2=C/C(=C\c3ccc(OC(C)=O)cc3)C(=O)O2)cc1`, for which the AC50 under setting [1] was 0.708 µM [falling, full curve, poor fit].

Regarding `COCc1[nH]nc2c1C(c1ccsc1)C(C#N)=C(N)O2` (stereo unspecified), the concentration at half-maximal activity (AC50) under setting [1] is 35.5 µM [falling, single point].

As for `O=C(Nc1ccc2c(c1)C(=O)N(C1CCCCC1)C2=O)C1CCCO1` (stereo unspecified), the concentration at half-maximal activity (AC50) is 2.91 µM [rising, full curve] under setting [1] and 2.31 µM [falling, partial curve, poor fit] under setting [2].

Turning to `CCOc1ccc(NC(=O)CN2CCC(n3cnc4cc(F)ccc43)CC2)cc1`, the half-maximal activity concentration (AC50) under setting [1] was 12.6 µM [falling, single point].

Take `O=C(CSC1=NCCN1)Nc1cccc(C(F)(F)F)c1`: the AC50 under setting [1] is 11.2 µM [falling, partial curve].

`CCCn1c(SCC(=O)Nc2nc(C)cs2)nnc1-c1cccnc1`: the concentration at half-maximal activity (AC50) under setting [1] is 35.5 µM [falling, single point].

For `COc1ccc2oc(=O)c(C(=O)NCC3CCCO3)cc2c1` (stereo unspecified), the AC50 under setting [1] is 15.8 µM [rising, single point].

For `O=C1CC(N2CCC(c3nc4ccccc4o3)CC2)C(=O)N1c1ccc(Cl)c(C(F)(F)F)c1` (stereo unspecified), under setting [1], the AC50 is 5.01 µM [falling, full curve, poor fit].

For `CC1(C)C(=O)NC(=O)N1Cc1ccccc1`, the concentration at half-maximal activity (AC50) under setting [1] is 0.103 µM [rising, full curve, poor fit].

Take `CCCCc1c(C)c2ccc(OCC(C)=O)cc2oc1=O`: under setting [1], the AC50 is 6.51 µM [rising, partial curve, poor fit].

`COc1cc(/C=C2\C(=N)N3N=C(C)SC3=NC2=O)cc(OC)c1OCCOc1ccccc1C`: the AC50 under setting [1] was 2.51 µM [rising, partial curve, poor fit].

Turning to `COc1cccc2cc(C(=O)NC3CC4CCC3C4)oc12` (stereo unspecified), the half-maximal activity concentration (AC50) under setting [1] was 25.1 µM [falling, single point].

Take `C/C(=N\NC(=O)c1ccncc1)c1cccc(NC(=O)c2ccc(C(C)(C)C)cc2)c1`: under setting [1], the half-maximal activity concentration (AC50) was 35.5 µM [falling, single point].

With `COc1cccc(NC(=S)NCc2ccco2)c1`, the AC50 under setting [1] was 0.651 µM [rising, partial curve, poor fit].

For the compound `N#Cc1cccc(C(c2nnnn2C2CCCC2)N2CCCCCC2)c1` (stereo unspecified), the half-maximal activity concentration (AC50) under setting [1] is 35.5 µM [falling, partial curve, poor fit].

On to `CCOC(=O)N(Cc1ccccc1)C(C(=O)O)C(C(=O)O)N(Cc1ccccc1)C(=O)OCC` (stereo unspecified), for which the AC50 under setting [1] is 1.78 µM [rising, partial curve, poor fit].

For the compound `Fc1ccc(-n2c(Cc3ccccc3)nnc2SCc2nc(-c3cccs3)no2)cc1`, the half-maximal activity concentration (AC50) under setting [1] was 25.9 µM [falling, single point].

As for `Cc1cc(C)cc(NC(=O)C2CCCN2/C=C/C(=O)C(F)(F)F)c1` (stereo unspecified), the AC50 under setting [1] was 6.51 µM [falling, single point] and the concentration at half-maximal activity (AC50) under setting [2] is 5.8 µM [rising, partial curve, poor fit].

Turning to `COc1ccc(NC2CCCN(C(=O)CN3C(=O)c4ccccc4C3=O)C2)cc1OC` (stereo unspecified), under setting [1], the concentration at half-maximal activity (AC50) was 35.5 µM [rising, single point].

A word on the AC50: it is the midpoint of the concentration-response curve, whichever way the signal moves.
